Measurements reported in patent US20160311918A1, “Anti-Ron Monoclonal Antibodies as a Cytotoxic Drug Delivery System for Targeted Cancer Therapy” (TEXAS TECH UNIVERSITY SYSTEM, priority 2013, published 2016).
Results are given in words; binding and its absence hold for the method and conditions named. Some binding calls cover weakened binding; strength is not graded here.

Chains of the proteins cited; added tags and fusions are not shown. Residues count along the entry.
UniProt Q04912, residues 25-1400: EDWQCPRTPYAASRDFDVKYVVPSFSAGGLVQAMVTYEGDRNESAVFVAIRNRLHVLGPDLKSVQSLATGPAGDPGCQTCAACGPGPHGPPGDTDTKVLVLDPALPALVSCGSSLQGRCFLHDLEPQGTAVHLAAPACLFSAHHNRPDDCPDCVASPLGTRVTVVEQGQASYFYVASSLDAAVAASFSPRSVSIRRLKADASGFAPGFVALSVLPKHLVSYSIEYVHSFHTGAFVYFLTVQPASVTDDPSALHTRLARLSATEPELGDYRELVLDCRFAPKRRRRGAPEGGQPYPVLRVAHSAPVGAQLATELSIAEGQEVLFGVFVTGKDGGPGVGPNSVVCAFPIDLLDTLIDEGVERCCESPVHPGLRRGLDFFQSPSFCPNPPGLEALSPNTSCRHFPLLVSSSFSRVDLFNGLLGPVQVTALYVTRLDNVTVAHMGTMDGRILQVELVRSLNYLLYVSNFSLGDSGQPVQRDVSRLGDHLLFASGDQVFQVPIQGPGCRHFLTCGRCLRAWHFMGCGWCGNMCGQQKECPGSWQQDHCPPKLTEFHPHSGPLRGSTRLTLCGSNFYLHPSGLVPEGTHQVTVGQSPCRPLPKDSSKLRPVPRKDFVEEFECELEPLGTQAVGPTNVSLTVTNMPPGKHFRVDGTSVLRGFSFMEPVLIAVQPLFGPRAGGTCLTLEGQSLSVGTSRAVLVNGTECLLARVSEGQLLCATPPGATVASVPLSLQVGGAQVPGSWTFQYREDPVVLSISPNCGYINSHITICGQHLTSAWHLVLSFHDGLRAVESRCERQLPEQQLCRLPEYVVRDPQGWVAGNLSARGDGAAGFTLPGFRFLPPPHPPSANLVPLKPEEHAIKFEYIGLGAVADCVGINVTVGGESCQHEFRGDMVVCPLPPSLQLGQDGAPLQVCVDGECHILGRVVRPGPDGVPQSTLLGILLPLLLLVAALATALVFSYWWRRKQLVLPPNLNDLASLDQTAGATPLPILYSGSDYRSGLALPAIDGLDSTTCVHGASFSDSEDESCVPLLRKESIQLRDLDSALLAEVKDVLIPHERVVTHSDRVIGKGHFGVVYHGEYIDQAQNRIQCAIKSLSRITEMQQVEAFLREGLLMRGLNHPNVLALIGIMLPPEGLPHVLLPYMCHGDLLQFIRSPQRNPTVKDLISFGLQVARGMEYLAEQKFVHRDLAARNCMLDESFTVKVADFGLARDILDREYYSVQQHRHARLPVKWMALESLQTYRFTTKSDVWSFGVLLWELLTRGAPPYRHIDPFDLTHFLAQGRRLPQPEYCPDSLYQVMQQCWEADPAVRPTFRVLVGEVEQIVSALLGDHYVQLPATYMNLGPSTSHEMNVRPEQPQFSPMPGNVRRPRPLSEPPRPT

Experiments:
[1] = molecular target: human RON receptor tyrosine kinase (recepteur d'origine nantais) (human) (UniProt Q04912); test: receptor binding studies
[2] = molecular target: human RON receptor tyrosine kinase (recepteur d'origine nantais) (human) (UniProt Q04912); test: direct binding, ELISA, IHC, Western blotting, flow cytometry

- binding [1]: binds
- binding [2]: binds
B1: mouse monoclonal antibody Zt/f2 specific to human RON (antibody, V domains shown)
VH: QVQLQQSGAELAKPGASVKMSCKASGYTFTSYWMHWVKQRPGQGLEWIGYINPSTGYIEYNQNFKDKATLTADKSSSTAYMQLSSLTSEDSAVYYCARSPSHYYGSRYGYFDVWGAGTTVTVSS
VL: QIVLSQSPAILSASPGEKVTMTCRASSSVSYMHWYQQKPGSSPKPWIYATSNLASGVPARFSGSGSGTSYSLTISRVEAEDAATYYCQQWSSNPRTFGGGTKLEIK
notes: Mouse IgG2a; also called anti-RON mAb Zt/f2
